Measured values from PubChem BioAssay AID504467 (National Center for Advancing Translational Sciences (NCATS), 2011).
About 7,700 (2.3%) of roughly 330,000 compounds were called active. Inconclusive results, whose numbers are uncertain, are shown with a selection of clear calls. The call rests on the fitted dose curve; in most records, active means well fitted inhibition curve with a large enough effect; inconclusive means small, poorly fitted or top-dose-only effect, or effect the other way; inactive means flat fitted curve, though single readings scatter. Where the call is inconclusive, the potency comes from a doubtful curve fit.
Potency means the concentration at half of the fitted maximal effect.

Assay: qHTS screen for small molecules that inhibit ELG1-dependent DNA repair in human embryonic kidney (HEK293T) cells expressing luciferase-tagged ELG1; further: nearly all actives have a fitted effect of over 55% in size
Conditions: HEK293T ELG1-luciferase reporter, luminescence, 16 h, DNA damage induced by 5-fluorouridine; series mostly up to 46.1 µM
Summary of the method: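 Luminescence from the luciferase reporter, measured 30 min after ONE-Glo reagent at room temperature, was the read-out. Beforehand, 2,000 cells per well were exposed for 16 hr at 37 °C to 5-fluorouridine together with compound or vehicle.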
With `COc1ccc(-n2nc(C(=O)NCC(=O)Nc3cccc(Cl)c3)c3ccccc3c2=O)cc1` the Potency was active: 13 µM. For `O=C1/C(=C/c2ccccn2)SC(=S)N1Cc1ccccc1`, the Potency was “inactive”. In the case of `CC1(C)CC(=O)C=C(Nc2ccc3c(c2)OCCO3)C1`, the Potency is reported as inconclusive: 18.4 µM [activator, single point]. With `O=C(Cn1nnc2ccccc21)c1ccc(Br)cc1` the Potency was inconclusive: 23.1 µM [activator, single point]. With `Cc1ccc(CNc2nc3ccccc3s2)s1` the Potency was inconclusive: 0.164 µM [activator, partial curve, poor fit]. With `CCCCCCCCC/C(=N\O)c1ccccn1` the Potency was inconclusive: 23.1 µM [activator, partial curve]. For `CC(=O)N1CCOc2ccc(S(=O)(=O)NCc3ccc(F)cc3)cc21`, the Potency was “inactive”. In the case of `Cc1ccc(S(=O)Cc2ccc(C(=O)N3CCN(C(=O)c4ccco4)CC3)o2)cc1` (stereo not given), the Potency is reported as “inactive”. In the case of `CN(C)P(=O)(Nc1cccc2ccccc12)Nc1cccc2ccccc12`, the Potency is reported as inconclusive: 5.01 µM [inhibitor, partial curve, poor fit]. For `CCOc1nc(Nc2ccc(OC)c(Cl)c2)nc(OCC)n1`, the Potency was inconclusive: 29.1 µM [inhibitor, single point]. In the case of `COc1ccc(-n2c(NC(=O)c3ccco3)c(C#N)c3nc4ccccc4nc32)cc1`, the Potency is reported as inconclusive: 0.0092 µM [inhibitor, full curve, poor fit]. In the case of `CCN(CC)CCNC(=O)c1ccc(NC(=O)Cc2ccccc2F)cc1`, the Potency is reported as “inactive”. In the case of `CC(=O)NCCc1ccc(S(=O)(=O)Nc2ccc(NC(=O)c3ccc(F)cc3)cc2)cc1`, the Potency is reported as “inactive”. With `c1csc(-c2nc(-c3ccncc3)no2)c1` the Potency was inconclusive: 18.4 µM [activator, partial curve]. For `O=C(Nc1nccs1)c1ccccn1`, the Potency was inconclusive: 14.6 µM [activator, partial curve]. With `Brc1cccc(-c2n[nH]c(-c3ccccc3)n2)c1` the Potency was inconclusive: 1.64 µM [activator, partial curve, poor fit]. For `COc1ccc(Nc2nc(-c3sc(NC(C)=O)nc3C)cs2)cc1`, the Potency was inconclusive: 23.1 µM [inhibitor, single point]. For `CCN(CC)C(=O)CSc1nc2cc3c(cc2c(=O)n1CCCC(=O)NCCc1ccc(OC)c(OC)c1)OCO3`, the Potency was inconclusive: 11.6 µM [inhibitor, partial curve]. In the case of `O=C(c1ccc(Cn2c(=S)[nH]c3cc4c(cc3c2=O)OCO4)cc1)N1CCN(c2ncccn2)CC1`, the Potency is reported as active: 7.3 µM. For `O=S(=O)(c1cccc2nsnc12)N1CCN(c2ccccc2F)CC1`, the Potency was inconclusive: 25.9 µM [inhibitor, partial curve, poor fit]. For `O=C(C[N+]1(CC#Cc2ccccc2)CCCCC1)c1ccccc1`, the Potency was “inactive”. In the case of `Cc1nnc(Sc2cc(C(=O)NC3CC3)c3ccccc3n2)s1`, the Potency is reported as “inactive”. With `COc1ccc(-n2ncc3c(NCc4cccs4)ncnc32)cc1` the Potency was inconclusive: 2.31 µM [activator, full curve]. For `CCOC(=O)c1ccc(N)cc1`, the Potency was inconclusive: 7.94 µM [activator, partial curve, poor fit]. For `O=C(COC(=O)CCC1CCCC1)Nc1cccc(S(=O)(=O)N2CCOCC2)c1`, the Potency was inconclusive: 2.06 µM [activator, partial curve, poor fit]. In the case of `C[C@H](CO)N1C[C@H](C)[C@@H](CN(C)C(=O)Nc2ccc3c(c2)OCO3)Oc2ccc(NC(=O)Cc3ccccc3)cc2C1=O`, the Potency is reported as inconclusive: 4.61 µM [inhibitor, partial curve, poor fit]. With `COc1ccc(/C=C2\C(=O)NCC(=O)N2C)cc1` the Potency was “inactive”. In the case of `Cc1cc(C)cc(NC(=O)CSc2nc3c(oc4ccccc43)c(=O)n2-c2ccccc2)c1`, the Potency is reported as inconclusive: 1.46 µM [inhibitor, full curve, poor fit]. For `CN(CCCC(=O)Nc1ccncc1)S(=O)(=O)c1ccc(Cl)cc1`, the Potency was active: 2.31 µM. With `CCOc1ccc(NC(=O)CSc2nncc(=O)n2N)cc1` the Potency was “inactive”. In the case of `COc1ccc(CCNC(=O)Cc2ccc(OCc3ccccc3)c(OC)c2[N+](=O)[O-])cc1OCc1ccccc1`, the Potency is reported as inconclusive: 5.8 µM [inhibitor, partial curve]. In the case of `COc1ccc(S(=O)(=O)Nc2ccccc2OC)cc1N=Nc1c(O)[nH]c(=S)[nH]c1=O`, the Potency is reported as “inactive”. With `C/C(=N\OCC(=O)NCC(F)(F)F)c1cc2ccccc2o1` the Potency was inconclusive: 18.4 µM [activator, partial curve]. For `Cc1ccc(C(=O)N2CCN(Cc3ccc4c(c3)OCO4)CC2)c(Cl)c1`, the Potency was “inactive”. With `O=C(CSc1nc(-c2ccco2)cc(C(F)(F)F)n1)Nc1ccc(C(=O)N2CCCCC2)cc1` the Potency was active: 4.61 µM. In the case of `O=C(N/N=C/c1ccccc1[N+](=O)[O-])c1ccncc1`, the Potency is reported as inconclusive: 25.9 µM [activator, single point]. For `CCCC(=O)Nc1nc(CC(=O)OCC)cs1`, the Potency was “inactive”. For `CCn1ncc(/C=N\NC(=O)c2ccc3c(c2)c(C)c(C)n3Cc2ccccc2)c1C`, the Potency was inconclusive: 32.6 µM [inhibitor, partial curve, poor fit]. For `CCc1cc(C(=O)OC)c(NC(=O)c2ccoc2C)s1`, the Potency was “inactive”. For `Cc1ccc(/C=N/NC(=O)CSc2nnc(-c3ccc(Cl)cc3)n2-c2ccc(Cl)cc2)o1`, the Potency was inconclusive: 16.4 µM [inhibitor, partial curve, poor fit]. For `Cc1cccc(/C(N)=N/OC(=O)COc2ccccc2Cl)c1`, the Potency was inconclusive: 25.9 µM [activator, partial curve, poor fit]. With `COCCCN=C1NN=C(c2cc(C)n(Cc3ccccc3Cl)c2C)CS1` the Potency was inconclusive: 29.1 µM [activator, single point]. With `O=S(=O)(NCCSc1ccccn1)c1ccc(Br)cc1` the Potency was inconclusive: 29.1 µM [inhibitor, single point]. In the case of `CC1(CC(=O)N/N=C/c2cc(Br)c(O)cc2O)OCCO1`, the Potency is reported as “inactive”. For `Cc1cc(O)ccc1N=Cc1c(C(F)(F)F)[nH][nH]c1=O`, the Potency was inconclusive: 2.59 µM [inhibitor, full curve, poor fit].
